Laboratory results: PubChem BioAssay AID1259331 (Drosophila RNAi Screening Center, 2017)
Shown is one part, drawn at random, of about 3,100 deposited reagents. 126 of all reagents (4.1%) count as active. 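Calls are per reagent; zinc was so toxic that few knock-downs lowered ATP further, so most hits raise ATP.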 The raw values are shown without normalisation. Entries without a mark were called inactive. Not given: the amount of reagent.

- Assay: 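Fly transmembrane-protein genes that affect zinc toxicity in cultured cells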 (primary screen)
- Cell system: Drosophila S2R+ cells
- Knock-down reagent: long dsRNA against Drosophila genes
- Timing: 5 days (4 days knock-down, then 1 day zinc)
- Challenge: zinc chloride at 15 mM final level for 1 day
- Read-out: 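Total cellular ATP measured by luciferase luminescence as a viability proxy, turned into Z scores from three plate copies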
- Scale: mean Z score: higher = more ATP than other wells, better survival under zinc; ATP luminescence: higher = more ATP, more viable cells
- Active means: 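a reagent is called a hit when its Z score is above 1.5 or below -1.5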
- Meaning of the calls: active = hit, ATP up or down; inactive = not a hit

| gene knocked down | amplicon | mean Z score | ATP luminescence, replicate 1 | ATP luminescence, replicate 2 |
| --- | --- | --- | --- | --- |
| alka | DRSC06136 | -0.237 | 84095 | 66874 |
| sut4 | DRSC07703 | -0.548 | 27868 | 27079 |
| sut4 | DRSC24885 | 0.0343 | 57151 | 57642 |
| Drl-2 | DRSC06155 | 0.124 | 43039 | 44822 |
| Drl-2 | DRSC06858 | -0.216 | 68624 | 65298 |
| Drl-2 | DRSC36862 | -0.099 | 46262 | 45345 |
| Drl-2 | DRSC36863 | 0.268 | 48808 | 55539 |
| Sys1 | DRSC14372 | -0.59 | 32616 | 47146 |
| app | DRSC09159 | 0.116 | 42611 | 42349 |
| app | DRSC25682 | 0.433 | 65434 | 64971 |
| CG9663 | DRSC00724 | 0.198 | 56705 | 61455 |
| Inx3 | DRSC14857 | 0.55 | 41891 | 49898 |
| Inx3 | DRSC24037 | -0.256 | 52298 | 51732 |
| Ugalt | DRSC18467 | -0.808 | 53207 | 52075 |
| CG11099 | DRSC06034 | 0.272 | 73014 | 78623 |
| Icmt | DRSC09834 | -0.323 | 67252 | 56481 |
| Icmt | DRSC39884 | -0.557 | 31982 | 61318 |
| mAChR-B | DRSC16345 | -0.921 | 30405 | 39422 |
| mAChR-B | DRSC26738 | -0.621 | 37450 | 55529 |
| CG3638 | DRSC18533 | 1.15 | 87182 | 83168 |
| CG3638 | DRSC25349 | -0.178 | 66805 | 50350 |
| Arms | DRSC03856 | -0.441 | 40845 | 39216 |
| Arms | DRSC04052 | -0.41 | 29205 | 29033 |
| Tret1-1 | DRSC07046 | -0.0834 | 76376 | 71213 |
| Tret1-1 | DRSC25701 | 0.468 | 69430 | 67783 |
| CG6659 | DRSC20003 | -0.453 | 38452 | 42361 |
| CG6659 | DRSC39777 | -0.0175 | 55899 | 56048 |
| foi | DRSC10719 | 5.25 (active) | 1.76e5 | 1.32e5 |
| foi | DRSC29596 | 0.597 | 68435 | 72808 |
| path | DRSC10361 | 0.858 | 86136 | 88795 |
| path | DRSC39838 | 0.645 | 61815 | 69052 |
| Hacd2 | DRSC03181 | -1.24 | 35595 | 34090 |

Taken from above.
Arms [DRSC04052], ATP luminescence, replicate 2 = 29033
foi [DRSC29596], ATP luminescence, replicate 2 = 72808
For “ATP luminescence, replicate 2”, alka [DRSC06136] reads 66874
Under “mean Z score”, mAChR-B [DRSC16345] is entered as -0.921
Drl-2 [DRSC06858], mean Z score: -0.216
CG6659 [DRSC20003], ATP luminescence, replicate 2 → 42361

More records follow.
| gene knocked down | amplicon | mean Z score | ATP luminescence, replicate 1 | ATP luminescence, replicate 2 |
| --- | --- | --- | --- | --- |
| mthl8 | DRSC08211 | -0.183 | 31125 | 30542 |
| mthl8 | DRSC08311 | -0.551 | 65485 | 61970 |
| ppk11 | DRSC02737 | -0.301 | 47388 | 40022 |
| snu | DRSC16589 | -0.589 | 41171 | 36542 |
| snu | DRSC39720 | -0.0243 | 54853 | 61678 |
| ppk12 | DRSC04086 | -0.409 | 47240 | 37759 |
| ppk12 | DRSC39712 | -0.343 | 57528 | 52161 |
| COX6AL2 | DRSC10082 | 0.488 | 89173 | 70493 |
| COX6AL2 | DRSC39542 | -0.0292 | 57477 | 51338 |
| nSyb | DRSC08727 | -0.379 | 30267 | 28769 |
| nSyb | DRSC27077 | -0.316 | 59089 | 50018 |
| wit | DRSC08741 | -0.52 | 29534 | 25193 |
| wit | DRSC26091 | -0.784 | 50041 | 41496 |
| wit | DRSC37034 | -0.0772 | 48081 | 48063 |
| CG17321 | DRSC02598 | 0.0976 | 52247 | 35959 |
| CG17321 | DRSC25649 | 0.296 | 66034 | 65880 |
| CG5810 | DRSC21921 | 0.655 | 54143 | 56208 |
| CG5810 | DRSC39633 | -0.137 | 57399 | 54957 |
| trn | DRSC11407 | -0.463 | 68349 | 49092 |
| Nup93-1 | DRSC19344 | 5.67 (active) | 1.11e5 | 1.14e5 |
| Nup93-1 | DRSC39780 | 5.53 (active) | 1.31e5 | 1.37e5 |
| SdhC | DRSC16088 | -0.309 | 31879 | 52675 |
| SdhC | DRSC39835 | 0.0785 | 52315 | 62656 |
| Flo1 | DRSC07427 | -0.326 | 27335 | 29933 |
| Flo1 | DRSC28122 | -0.0483 | 55453 | 55413 |
| alpha-Catr | DRSC28046 | -0.238 | 61935 | 42508 |
| CG31760 | DRSC02590 | -0.607 | 41916 | 40201 |
| CG31760 | DRSC27108 | 0.43 | 48955 | 70990 |
| Vamp7 | DRSC06599 | -0.315 | 1.01e5 | 63635 |
| CG13078 | DRSC02182 | -0.153 | 48149 | 36130 |
| Cftr | DRSC15872 | -1.04 | 32239 | 33638 |
| Cftr | DRSC24655 | -0.122 | 56448 | 52658 |
| Scamp | DRSC20286 | 0.399 | 71831 | 73529 |
| Scamp | DRSC29752 | -1.38 | 42234 | 38102 |
| Nct | DRSC16172 | -0.499 | 39233 | 41462 |
| Nct | DRSC39647 | -0.82 | 51887 | 46091 |
